No constants are given. Whether binding was seen depends on the method and setting. Binding seen in cells or lysates may run through a third protein. Some results given as binding are weak or reduced against the parent protein; the word gives no strength. Where a sequence is shown, tags or fusion partners need not be part of it. Each block holds one molecule with its values, some of them ahead of it.
Key:
[1] = biological target: eGFP-DLG1 (Rattus norvegicus DLG1/pEGFP-C1) (rat (Rattus norvegicus)); assay: co-IP; immunoprecipitation with anti-GFP beads from lysates of HEK293T cells transiently co-expressing a GFP fusion and a FLAG fusion; washing buffer with 0.1% NP-40; pellets blotted with anti-FLAG and anti-GFP; GFP alone as negative control
[2] = biological target: IFT20-eGFP (Mus musculus IFT20/pEGFP-N1) (mouse (Mus musculus)) (UniProt Q61025); assay: as above

Protein sequences, listed by entry. Tags and fused reporters are not part of them.
UniProt Q61025: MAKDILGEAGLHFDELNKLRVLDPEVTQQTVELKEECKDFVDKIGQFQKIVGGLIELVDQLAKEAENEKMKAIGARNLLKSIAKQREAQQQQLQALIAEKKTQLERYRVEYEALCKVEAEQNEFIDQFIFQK
UniProt Q8IY31: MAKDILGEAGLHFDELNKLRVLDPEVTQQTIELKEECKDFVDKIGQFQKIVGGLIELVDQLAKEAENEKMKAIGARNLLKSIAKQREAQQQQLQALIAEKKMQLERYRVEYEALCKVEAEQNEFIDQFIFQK

binding [1]: binds
Molecule: FLAG-IFT20 (Homo sapiens IFT20/pcDNA5.1-6xHis-3xFLAG-TEV) (from UniProt Q8IY31 1-132)

binding [1]: binds | binding [2]: binds
B1: FLAG-Myc-SDCCAG3 (Mus musculus SDCCAG3/pCMV6-Myc-DDK) (protein, UniProt A2AIW0 1-432)
chain: MSGYARRQGAPPLSRTRSLVVPDAPAFYERRSCLPQLDCERPHGGDLHPHLFGFRPTFMCYVPSPVLASVGDTGFGYGKGKCTNQGPSGAPETRFGGDKLEDLEEANPFSFKEFLKTKNLSLSKEDTTTSRIYPKEASRHPLGLEHSSPASQLMGYGLESQQPFFEDPTRASNLEEDEDDGWNITYLPSAVDQTHSSRDTQDSPPCDTYLSFFSNSSELACPESLPPWTLSDTDSRISPASPAGSPNADFAAHEESLGDRHLRTLQISYEALKDENSKLRRKLNEVQSFSETQTEMVRTLERKLEAKMIKEESDFHDLESVVQQVEQNLELMTKRAVKAENHVLKLKQEINLLQAQLSNLRRENEALRSGQGASLSVVKQNTDVALQNLHLVMNSAHASIKQLVSGADTLNLVAEILKSIDRISEVKDEVDS

Reference: PMC11239879
